For at least one compound, name, drawing or mass did not settle the structure.
Test system: STIB 900 strain of Trypanosoma brucei rhodesiense (T. b. r.)
Test: In vivo T. b. r. STIB 900 mouse model
Details: 5 mg/kg ip; mice cured / mice infected; days 3-6 post-infection
Protocol: Groups of four mice were infected intraperitoneally with 2×10^5 bloodstream forms of T. b. r. STIB 900 which originates from a patient in Tanzania. On days 3, 4, 5, and 6 post-infection the experimental groups were treated with the drugs either by the intraperitoneal or for prodrugs by the oral route. Usually the highest tolerated dose was used which was determined in a pretoxicological experiment. Parasitemia of the mice was checked daily up to day 14 post-infection and thereafter 2 times per week up to day 60. One group of mice was not treated and acted as control. For relapsing mice, the day of death was recorded and the survival time determined.

## N=C(N)c1ccc(-c2ccc(-c3ccc(C(=N)N)cc3)o2)cc1 [furamidine, reference compound]
  In Vivo T.b.r. cures: 0/4

Source: US20100249175A1, “Dicationic compounds which selectively recognize G-quadruplex DNA” (priority 2005, published 2010)
